PubChem BioAssay AID1259254 | NCATS | 2017

Assay: 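Gene knock-downs that lead to re-replication, shown by excess G2 DNA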 (primary screen)
System: human HCT116 colorectal cancer cells
Reagents: single siRNA against human genes
Timing: 3 days
Measured: 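Nuclei stained with Hoechst and imaged; cell-cycle phase assigned by DNA content; G2 share scaled per plate, non-targeting siRNA 0%, GMNN siRNA 100%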
Direction: G2 robust z-score: higher = more G2 cells, more excess DNA replication
Hit rule: 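Active siRNAs have a G2 robust z of 5 or more median absolute deviations over the median, which in these data means about 38% or higher of GMNN control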
Here is one part, drawn at random, of about 59,000 deposited reagents. About 1,550 of all reagents (2.6%) were called active. 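G2 share is only a proxy for re-replication; each gene was hit by three separate siRNAs, and active genes were retested.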 The numbers tell different reagents against one gene apart. Not all columns of the deposit are shown. Reagent sequences are not shown. Not stated in the record: the amount of reagent.

Gene,siRNA no.,G2 robust z-score,call
PPP6R2,1,0.03,inactive
PPP6R2,2,-0.184,inactive
PPP6R2,3,-0.614,inactive
HSPB2,1,1.06,inactive
HSPB2,2,-0.999,inactive
HSPB2,3,-0.112,inactive
MED15,1,-0.125,inactive
MED15,2,0.383,inactive
MED15,3,0.0921,inactive
ENTPD7,1,0.773,inactive
ENTPD7,2,0.187,inactive
ENTPD7,3,-0.686,inactive
SPON2,1,-0.843,inactive
SPON2,2,1.45,inactive
SPON2,3,0.245,inactive
ZCCHC14,1,0.985,inactive
ZCCHC14,2,-0.978,inactive
ZCCHC14,3,-0.0945,inactive
DECR2,1,1.44,inactive
DECR2,2,4.27,inactive
DECR2,3,-1.21,inactive
GRK6,1,-1.21,inactive
GRK6,2,0.103,inactive
GRK6,3,-0.461,inactive
SCFD2,1,2.34,inactive
SCFD2,2,-1.05,inactive
SCFD2,3,-0.801,inactive
PPP1R10,1,-0.514,inactive
PPP1R10,2,-0.785,inactive
PPP1R10,3,-0.786,inactive
